Reference: patent publication US9394285B2 (Pfizer Inc., priority 2013, dated 2016)
The name of at least one read-out is uncertain.

Sequences of proteins named here, by UniProt entry; tags and fusion partners are left off. A change or cut given only in a name is not applied to a line headed by its entry.
UniProt Q13131: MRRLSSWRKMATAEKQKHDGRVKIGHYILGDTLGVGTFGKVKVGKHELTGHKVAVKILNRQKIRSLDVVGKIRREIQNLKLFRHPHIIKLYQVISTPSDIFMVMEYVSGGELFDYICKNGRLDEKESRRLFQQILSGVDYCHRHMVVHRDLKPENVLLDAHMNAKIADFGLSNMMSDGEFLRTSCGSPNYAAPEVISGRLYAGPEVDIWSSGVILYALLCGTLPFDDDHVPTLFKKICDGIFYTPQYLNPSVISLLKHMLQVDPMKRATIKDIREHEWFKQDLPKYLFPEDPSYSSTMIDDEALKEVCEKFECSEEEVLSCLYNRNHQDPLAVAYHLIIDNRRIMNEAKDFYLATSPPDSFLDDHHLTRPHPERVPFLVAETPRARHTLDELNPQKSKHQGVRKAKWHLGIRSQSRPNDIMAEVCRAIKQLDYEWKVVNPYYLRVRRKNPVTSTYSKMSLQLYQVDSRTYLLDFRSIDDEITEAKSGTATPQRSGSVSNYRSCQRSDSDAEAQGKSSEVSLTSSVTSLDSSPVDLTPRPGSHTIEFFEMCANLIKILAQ
UniProt Q9Y478: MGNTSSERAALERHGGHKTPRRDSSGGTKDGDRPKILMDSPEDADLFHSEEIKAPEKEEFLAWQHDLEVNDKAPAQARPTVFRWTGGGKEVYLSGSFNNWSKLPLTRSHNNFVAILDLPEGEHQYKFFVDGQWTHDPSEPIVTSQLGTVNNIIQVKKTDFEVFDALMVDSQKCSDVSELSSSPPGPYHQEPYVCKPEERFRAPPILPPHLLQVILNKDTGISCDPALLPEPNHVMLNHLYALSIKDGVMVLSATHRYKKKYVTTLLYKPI

Biological target: human AMPK (full-length γ1, β1 and α1 subunits) (Homo sapiens (Human), UniProt Q13131+Q9Y478)
Experiment: AMPK in vitro biochemical assay (33P-based, SAMS peptide, PP2A dephosphorylation)
Settings: counts as % of positive control wells (enzyme, allosteric activator or AMP, PP2A and substrate)
From the text: We designed a tricistronic AMPK expression construct that included open reading frames encoding the full-length γ1, β1 and α1 subunits of human AMPK with a ribosome-binding site (RBS) ahead of each coding region and subcloned this into pET-14b expression vector (Novagen, Madison, Wis.) using standard molecular biology techniques. AMPK tricistronic construct was transformed into E. coli BL21-CodonPlus™ (DE3)-RIPL strain (Stratagene) and transformants were selected on LB (Luria-Bertani) agar plates containing ampicillin (100 μg/ml). […] Optical density sample measurements were made on an UltroSpec 2000 spectrophotometer (Pharmacia Biotech) at 600 nm. When the cell density reached ˜0.9 OD, the temperature was reduced to 18° C. and the culture was induced at 18° C. with 0.1 mM Isopropylthiogalactoside (IPTG). […] The cell pellets were aliquoted into four portions, flash frozen in liquid nitrogen and were stored at −80° C. until purification. For purification, frozen cell paste was thawed and resuspended in 50 ml lysis buffer (50 mM Tris, pH 8.0, 150 mM NaCl, 10% glycerol, 2 mM Tris-2-carboxyethyl phosphine (TCEP), 20 mM imidazole and 0.001% Triton X-100). […]
The biochemical EC50 (half-maximal concentration required for full activation) of compounds for the activation of AMPK was evaluated by ^33P-based assay using SAMS peptide (commercially available) derived from ACC-1. […]

CC(C)(CO)c1ccc(-c2cc3c(C(=O)O)c[nH]c3cc2Cl)cc1F [Example 163, 6-chloro-5-[3-fluoro-4-(1-hydroxy-2-methylpropan-2-yl)phenyl]-1H-indole-3-carboxylic acid]
Maximum: 112.4%
